Laboratory results published in US20250074896A1, “ARYLTETRAHYDROPYRIDAZINE DERIVATIVE OR SALT THEREOF AND INSECTICIDAL AGENT CONTAINING THE COMPOUND AND METHOD FOR USING SAME” (NIHON NOHYAKU CO., LTD., priority 2021, published 2025).
Some entries share one result that the patent states for a list of compounds.

What was measured:
Assay type in all cases: in vivo
[1] = system: Diamondback moth (Plutella xylostella); test: Insecticidal test on diamondback moth (dip treatment of Chinese cabbage seedlings with laid eggs); settings: dip about 30 seconds, 6 days after treatment, 25° C.
[2] = system: Western Flower Thrips (Frankliniella occidentalis); test: Insecticidal test on western flower thrips (kidney bean leaf pieces, hatched larvae); settings: 4 days after the treatment
[3] = system: Small Brown Planthopper (Laodelphax striatellus); test: Insecticidal test on small brown planthopper (dipped rice seedlings, 3rd-instar larvae); settings: rice seedlings dipped 30 seconds, 8 days after inoculation

COC(=O)N1C(=O)C(C(=O)Nc2ccc(F)c(F)c2)=C(O)CN1c1cncc(F)c1C#N [3-510]
A (the mortality rate is 100%): insecticidal efficacy (corrected mortality rate) against diamondback moth ([1]; 50 ppm) | insecticidal efficacy (corrected mortality rate) against diamondback moth ([1]; 500 ppm) | insecticidal efficacy (corrected mortality rate) against western flower thrips ([2]; 50 ppm) | insecticidal efficacy (corrected mortality rate) against western flower thrips ([2]; 500 ppm) | insecticidal efficacy (corrected mortality rate) against small brown planthopper ([3]; 50 ppm) | insecticidal efficacy (corrected mortality rate) against small brown planthopper ([3]; 500 ppm)

N#Cc1ccc(N2CC(O)=C(C(=O)Nc3ccc(OC(F)(F)F)cc3)C(=O)N2)cn1 [1-109]
A (the mortality rate is 100%): insecticidal efficacy (corrected mortality rate) against diamondback moth ([1]; 500 ppm) | insecticidal efficacy (corrected mortality rate) against western flower thrips ([2]; 500 ppm) | insecticidal efficacy (corrected mortality rate) against small brown planthopper ([3]; 500 ppm)

COC(=O)N1C(=O)C(C(=S)Nc2ccc(F)c(F)c2)=C(O)CN1c1ccc(C#N)nc1 [4-51]
A (the mortality rate is 100%): insecticidal efficacy (corrected mortality rate) against diamondback moth ([1]; 500 ppm) | insecticidal efficacy (corrected mortality rate) against western flower thrips ([2]; 50 ppm) | insecticidal efficacy (corrected mortality rate) against western flower thrips ([2]; 500 ppm) | insecticidal efficacy (corrected mortality rate) against small brown planthopper ([3]; 50 ppm) | insecticidal efficacy (corrected mortality rate) against small brown planthopper ([3]; 500 ppm)

COC(=O)N1C(=O)C(C(=O)Nc2ccc(F)c(F)c2)=C(O)CN1c1ccc(C#N)c(Cl)c1 [3-409]
A (the mortality rate is 100%): insecticidal efficacy (corrected mortality rate) against diamondback moth ([1]; 500 ppm) | insecticidal efficacy (corrected mortality rate) against western flower thrips ([2]; 50 ppm) | insecticidal efficacy (corrected mortality rate) against western flower thrips ([2]; 500 ppm) | insecticidal efficacy (corrected mortality rate) against small brown planthopper ([3]; 50 ppm) | insecticidal efficacy (corrected mortality rate) against small brown planthopper ([3]; 500 ppm)

Cc1cc(N2CC(O)=C(C(=O)Nc3cc(F)c(F)cc3F)C(=O)N2)cnc1C#N [1-322]
A (the mortality rate is 100%): insecticidal efficacy (corrected mortality rate) against diamondback moth ([1]; 50 ppm) | insecticidal efficacy (corrected mortality rate) against diamondback moth ([1]; 500 ppm) | insecticidal efficacy (corrected mortality rate) against western flower thrips ([2]; 50 ppm) | insecticidal efficacy (corrected mortality rate) against western flower thrips ([2]; 500 ppm) | insecticidal efficacy (corrected mortality rate) against small brown planthopper ([3]; 50 ppm) | insecticidal efficacy (corrected mortality rate) against small brown planthopper ([3]; 500 ppm)

Cc1cc(N2CC(O)=C(C(=O)Nc3ccc(Cl)nc3)C(=O)N2)cnc1C#N [1-47]
A (the mortality rate is 100%): insecticidal efficacy (corrected mortality rate) against diamondback moth ([1]; 500 ppm) | insecticidal efficacy (corrected mortality rate) against western flower thrips ([2]; 50 ppm) | insecticidal efficacy (corrected mortality rate) against western flower thrips ([2]; 500 ppm) | insecticidal efficacy (corrected mortality rate) against small brown planthopper ([3]; 50 ppm) | insecticidal efficacy (corrected mortality rate) against small brown planthopper ([3]; 500 ppm)

COC(=O)N1C(=O)C(C(=S)Nc2ccc(Cl)cc2)=C(O)CN1c1ccc(C#N)nc1 [4-54]
A (the mortality rate is 100%): insecticidal efficacy (corrected mortality rate) against diamondback moth ([1]; 50 ppm) | insecticidal efficacy (corrected mortality rate) against diamondback moth ([1]; 500 ppm) | insecticidal efficacy (corrected mortality rate) against western flower thrips ([2]; 50 ppm) | insecticidal efficacy (corrected mortality rate) against western flower thrips ([2]; 500 ppm) | insecticidal efficacy (corrected mortality rate) against small brown planthopper ([3]; 50 ppm) | insecticidal efficacy (corrected mortality rate) against small brown planthopper ([3]; 500 ppm)

O=C(Nc1ccc(F)cc1)C1=C(O)CN(c2ccn3ncnc3c2)NC1=O [1-160]
A (the mortality rate is 100%): insecticidal efficacy (corrected mortality rate) against diamondback moth ([1]; 500 ppm) | insecticidal efficacy (corrected mortality rate) against western flower thrips ([2]; 500 ppm) | insecticidal efficacy (corrected mortality rate) against small brown planthopper ([3]; 500 ppm)

CC(C)(C)OC(=O)N1C(=O)C(C(=S)Nc2ccccc2F)=C(O)CN1c1ccc(C(F)(F)F)nc1 [4-28]
A (the mortality rate is 100%): insecticidal efficacy (corrected mortality rate) against diamondback moth ([1]; 500 ppm) | insecticidal efficacy (corrected mortality rate) against western flower thrips ([2]; 500 ppm) | insecticidal efficacy (corrected mortality rate) against small brown planthopper ([3]; 500 ppm)

O=C(Nc1ccc(F)cc1)C1=C(O)CN(c2cnc(Br)cn2)NC1=O [1-141]
A (the mortality rate is 100%): insecticidal efficacy (corrected mortality rate) against diamondback moth ([1]; 500 ppm) | insecticidal efficacy (corrected mortality rate) against western flower thrips ([2]; 500 ppm) | insecticidal efficacy (corrected mortality rate) against small brown planthopper ([3]; 500 ppm)

CCCCOC(=O)N1C(=O)C(C(=O)Nc2ccc(F)cc2)=C(O)CN1c1ccc(C#N)nc1 [3-269]
A (the mortality rate is 100%): insecticidal efficacy (corrected mortality rate) against diamondback moth ([1]; 50 ppm) | insecticidal efficacy (corrected mortality rate) against diamondback moth ([1]; 500 ppm) | insecticidal efficacy (corrected mortality rate) against western flower thrips ([2]; 50 ppm) | insecticidal efficacy (corrected mortality rate) against western flower thrips ([2]; 500 ppm) | insecticidal efficacy (corrected mortality rate) against small brown planthopper ([3]; 50 ppm) | insecticidal efficacy (corrected mortality rate) against small brown planthopper ([3]; 500 ppm)

COC(=O)N1C(=O)C(C(=O)Nc2ccccc2F)=C(O)CN1c1cnc(C#N)c(C)c1 [3-533]
A (the mortality rate is 100%): insecticidal efficacy (corrected mortality rate) against diamondback moth ([1]; 500 ppm) | insecticidal efficacy (corrected mortality rate) against western flower thrips ([2]; 50 ppm) | insecticidal efficacy (corrected mortality rate) against western flower thrips ([2]; 500 ppm) | insecticidal efficacy (corrected mortality rate) against small brown planthopper ([3]; 50 ppm) | insecticidal efficacy (corrected mortality rate) against small brown planthopper ([3]; 500 ppm)

COC(=O)N1C(=O)C(C(=O)Nc2ccc(C#N)cc2)=C(O)CN1c1cnc(C#N)c(Cl)c1 [3-467]
A (the mortality rate is 100%): insecticidal efficacy (corrected mortality rate) against diamondback moth ([1]; 50 ppm) | insecticidal efficacy (corrected mortality rate) against diamondback moth ([1]; 500 ppm) | insecticidal efficacy (corrected mortality rate) against western flower thrips ([2]; 50 ppm) | insecticidal efficacy (corrected mortality rate) against western flower thrips ([2]; 500 ppm) | insecticidal efficacy (corrected mortality rate) against small brown planthopper ([3]; 50 ppm) | insecticidal efficacy (corrected mortality rate) against small brown planthopper ([3]; 500 ppm)

O=C(Nc1ccc(F)cn1)C1=C(O)CN(c2ccc(Br)nc2)NC1=O [1-120]
A (the mortality rate is 100%): insecticidal efficacy (corrected mortality rate) against diamondback moth ([1]; 500 ppm) | insecticidal efficacy (corrected mortality rate) against western flower thrips ([2]; 500 ppm) | insecticidal efficacy (corrected mortality rate) against small brown planthopper ([3]; 500 ppm)

CCCN(C)C(=O)N1C(=O)C(C(=O)Nc2ccc(F)cc2)=C(O)CN1c1ccc(C(F)(F)F)nc1 [3-98]
A (the mortality rate is 100%): insecticidal efficacy (corrected mortality rate) against diamondback moth ([1]; 50 ppm) | insecticidal efficacy (corrected mortality rate) against diamondback moth ([1]; 500 ppm) | insecticidal efficacy (corrected mortality rate) against western flower thrips ([2]; 50 ppm) | insecticidal efficacy (corrected mortality rate) against western flower thrips ([2]; 500 ppm) | insecticidal efficacy (corrected mortality rate) against small brown planthopper ([3]; 50 ppm) | insecticidal efficacy (corrected mortality rate) against small brown planthopper ([3]; 500 ppm)
